Test results from PMC4525183, “Snf1/AMP-activated protein kinase activates Arf3p to promote invasive yeast growth via a non-canonical GEF domain” (Nature Communications, 2015).

Amino acid sequences for entries named in this document (tags omitted).
UniProt P11075: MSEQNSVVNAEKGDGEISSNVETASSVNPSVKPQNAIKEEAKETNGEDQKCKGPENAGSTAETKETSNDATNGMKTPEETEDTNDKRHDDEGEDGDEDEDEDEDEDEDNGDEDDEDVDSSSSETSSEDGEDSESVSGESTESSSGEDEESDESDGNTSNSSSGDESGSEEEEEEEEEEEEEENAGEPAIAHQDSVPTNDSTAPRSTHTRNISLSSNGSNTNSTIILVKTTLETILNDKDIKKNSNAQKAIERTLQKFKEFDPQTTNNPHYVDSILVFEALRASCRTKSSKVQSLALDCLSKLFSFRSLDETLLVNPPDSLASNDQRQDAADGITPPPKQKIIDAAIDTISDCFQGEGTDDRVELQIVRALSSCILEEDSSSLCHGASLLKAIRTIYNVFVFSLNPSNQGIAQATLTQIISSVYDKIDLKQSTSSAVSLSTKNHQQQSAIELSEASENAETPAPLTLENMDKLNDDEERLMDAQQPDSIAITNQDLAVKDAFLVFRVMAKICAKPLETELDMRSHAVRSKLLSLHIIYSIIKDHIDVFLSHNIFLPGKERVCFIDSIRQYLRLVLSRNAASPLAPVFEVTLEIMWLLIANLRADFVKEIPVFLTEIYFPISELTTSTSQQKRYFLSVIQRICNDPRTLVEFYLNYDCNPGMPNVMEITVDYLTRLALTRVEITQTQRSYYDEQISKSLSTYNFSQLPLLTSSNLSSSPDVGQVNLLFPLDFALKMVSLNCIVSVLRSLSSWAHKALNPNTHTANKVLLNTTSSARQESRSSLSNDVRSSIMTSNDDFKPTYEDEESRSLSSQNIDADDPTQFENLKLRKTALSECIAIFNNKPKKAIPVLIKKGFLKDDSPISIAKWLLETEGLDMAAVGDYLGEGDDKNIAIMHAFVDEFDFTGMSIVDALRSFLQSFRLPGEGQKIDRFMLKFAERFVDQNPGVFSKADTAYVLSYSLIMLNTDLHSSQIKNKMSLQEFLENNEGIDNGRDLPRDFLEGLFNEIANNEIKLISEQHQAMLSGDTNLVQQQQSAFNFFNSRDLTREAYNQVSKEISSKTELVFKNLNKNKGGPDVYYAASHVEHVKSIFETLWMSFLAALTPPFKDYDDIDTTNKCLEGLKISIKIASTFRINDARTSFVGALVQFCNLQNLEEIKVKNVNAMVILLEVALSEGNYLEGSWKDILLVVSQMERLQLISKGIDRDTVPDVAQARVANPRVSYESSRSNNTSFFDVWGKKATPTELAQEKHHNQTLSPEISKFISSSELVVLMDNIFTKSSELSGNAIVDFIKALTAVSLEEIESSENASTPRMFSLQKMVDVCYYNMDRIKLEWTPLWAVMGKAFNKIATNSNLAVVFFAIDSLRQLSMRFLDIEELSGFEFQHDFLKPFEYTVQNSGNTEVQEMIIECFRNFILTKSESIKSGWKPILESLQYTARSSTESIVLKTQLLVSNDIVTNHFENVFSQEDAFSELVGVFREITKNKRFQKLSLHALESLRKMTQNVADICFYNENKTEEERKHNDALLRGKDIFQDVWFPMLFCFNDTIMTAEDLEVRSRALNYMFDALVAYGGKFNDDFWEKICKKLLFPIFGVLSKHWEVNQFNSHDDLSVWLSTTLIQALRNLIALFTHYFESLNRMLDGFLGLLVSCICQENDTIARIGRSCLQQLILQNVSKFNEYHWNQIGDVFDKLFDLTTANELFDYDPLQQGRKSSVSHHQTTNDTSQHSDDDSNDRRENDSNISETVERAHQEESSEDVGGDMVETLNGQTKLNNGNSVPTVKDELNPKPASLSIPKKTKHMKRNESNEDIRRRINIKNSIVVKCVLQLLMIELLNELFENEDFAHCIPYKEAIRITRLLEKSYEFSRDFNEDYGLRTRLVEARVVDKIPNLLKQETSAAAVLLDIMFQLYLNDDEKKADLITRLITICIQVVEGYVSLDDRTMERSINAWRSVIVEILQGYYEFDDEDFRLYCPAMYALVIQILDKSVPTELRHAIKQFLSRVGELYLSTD

T1: dominant-negative GDP-bound Arf3p^T31N (bait used to capture potential GEFs) (S. cerevisiae) (UniProt P40994)
T1 sequence: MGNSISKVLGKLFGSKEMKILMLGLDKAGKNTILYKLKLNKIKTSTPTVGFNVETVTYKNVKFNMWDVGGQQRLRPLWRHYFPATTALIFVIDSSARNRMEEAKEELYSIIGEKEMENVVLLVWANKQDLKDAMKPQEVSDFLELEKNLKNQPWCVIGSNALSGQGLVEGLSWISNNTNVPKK

B1: Rom2p (protein, UniProt P51862 1-1356)
chain: MSETNVDSLGDRNDIYSQIFGVERRPDSFATFDSDSHGDISSQLLPNRIENIQNLNVLLSEDIANDIIIAKQRRRSGVEAAIDDSDIPNNEMKGKSSNYILSQQTNIKEVPDTQSLSSADNTPVSSPKKARDATSSHPIVHAKSMSHIYSTSNSASRQAKHYNDHPLPPMSPRNEVYQKNKSTTAFVPKRKPSLPQLALAGLKKQSSFSTGSASTTPTQARKSPLQGFGFFSRPSSKDLHEQHQHHQHIQHNNINNHNNNNTNNNGAHYQVGSSNSNYPQHSHSISSRSMSLNSSTLKNIASSFQSKTSNSRKATQKYDITSNPFSDPHHHHHHHHSSNSHSSLNNVHGSGNSSSVMGSSSNIGLGLKTRVSSTSLALKRYTSVSGTSLSSPRRSSMTPLSASRPVMSASSKKPQVYPALLSRVATKFKSSIQLGEHKKDGLVYRDAFTGQQAVDVICAIIRTSDRNLALLFGRSLDAQKLFHDVVYEHRLRDSPHEVYEFTDNSRFTGTGSTNAHDPLMLLPNSSSFNSGNHSYPNSGMVPSSSTSSLNSDQATLTGSRLHMSSSLSQQKNPAAIHNVNGVFTLLAECYSPTCTRDALCYSISCPRRLEQQARLNLKPNGGLKRNISMALDDDDEEKPSWTSSVSKEDWENLPKKEIKRQEAIYEVYITEKNFVKSLEITRDTFMKTLAETNIISADIRKNFIKHVFAHINDIYSVNRRFLKALTDRQRSSPVVRGIGDIVLRFIPFFEPFVSYVASRPYAKYLIETQRSVNPYFARFDDDMMSSSLRHGIDSFLSQGVSRPGRYMLLVKEIMKSTDPEKDKSDYEDLSKAMDALRDFMKRIDQASGAAQDRHDVKLLKQKILFKNEYVNLGLNDERRKIKHEGILSRKELSKSDGTVVGDIQFYLLDNMLLFLKAKAVNKWHQHKVFQRPIPLPLLFACPGEDMPALRKYIGDHPDCSGTVIQPEYNTSNPKNAITFLYYGAKQRYQVTLYAAQYAGLQTLLEKIKQGQAAIISKTEMFNVTKMSDRFFDYTNKINSVTSCDGGRKLLIATNSGLYMSNIKRQQNKDHRHKSSAFFSTPIQLVQRNNITQIAVLEEFKSIILLIDKKLYSCPLSLIEAEGNGTSFFKKHHKELINHVSFFAEGDCNGKRLIVTAHSSSHSIKYFEHEHPLLAEKNGSGSGNKKSLKKKITEVIFDSEPVSISFLKANLCIGCKKGFQIVSISQNAHESLLDPADTSLEFALRDTLKPMAIYRVGNMFLLCYTEFAFFVNNQGWRKKESHIIHWEGEPQKFAIWYPYILAFDSNFIEIRKIETGELIRCVLADKIRLLQTSTQEILYCYEDYRGYDTVASLDFWG
B2: Lte1p (protein, UniProt P07866 1-1435)
chain: MEIFSQKDYYPTPSSNVISYESDCVSKPVNSADLPALIVHLSSPLEGVDYNASADFFLIYRNFITPQDLHDLLIYRFRWCIREITTNAAKAKRRRIGEVALVRTFVLLRHSILNYFVQDFLPNITLRLRLIEFLNDKHIEQYPKIISSCIINLKKNWVHCSKLVWENIELNEPDKLDFDAWLHYSLKDFTQLESLHKRGSRLSIYARQSFASPDFRNQSVLSLYKTSDVFRLPEKLQSSNSSKNQRSPSMLLFPDNTSNVYSKHRIAKEPSVDNESEDMSDSKQKISHLSKVTLVSTLMKGVDYPSSYAVDKIMPPTPAKKVEFILNSLYIPEDLNEQSGTLQGTSTTSSLDNNSNSNSRSNTSSMSVLHRSAIGLLAKWMKNHNRHDSSNDKKFMSAIKPANQKPEMDAFVKYVVSISSLNRKSSKEEEEEFLNSDSSKFDILSARTIDEVESLLHLQNQLIEKVQTHSNNNRGPTVNVDCERREHIHDIKILQQNSFKPSNDNFSAMDNLDLYQTVSSIAQSVISLTNTLNKQLQNNESNMQPSPSYDALQRRKVKSLTTAYYNKMHGSYSAESMRLFDKDNSSSRTDENGPQRLLFHETDKTNSEAITNMTPRRKNHSQSQKSMTSSPLKNVLPDLKESSPLNDSREDTESITYSYDSELSSSSPPRDTVTKKSRKVRNIVNNTDSPTLKTKTGFLNLREFTFEDTKSLDEKKSTIDGLEKNYDNKENQESEYESTKKLDNSLDASSEANNYDITTRKKHSSCNHKIKQAVVRPASGRISISRVQSIAITPTKELSIVDPEQNKSNSVIEEISEIEPLNLEYNKKSALYSDTSSTVISISTSKLFESAQNSPLKQTQNPQREFPNGTSVSETNRIRLSIAPTIESVVSDLNSITTGSTVETFETSRDLPVPHQRIINLREEYQRGNQDIISNTSSLHELKTIDLSDSNNDLESPSTHAKNNKYFFSPDDGSIDVASPMKNVEELKSKFLKNESETNSNISGSVLTMDDIDINDTSSARNTRRANSESAFTGSLNKKNLNEIANMLDDSINDDPITVALMKLEGTYEKIPEKPENTKSSDAIGIKTSKLADEVEMLNLNNLPSFQNSPAEKRKSLLIERRRQTIMNIPFTPDQSEKEGFTSSSPEKIDVSANVDVAVQAAQIQELIGQYRIHDSRLMISNNESHVPFILMYDSLSVAQQMTLIEKEILGEIDWKDLLDLKMKHEGPQVISWLQLLVRNETLSGIDLAISRFNLTVDWIISEILLTKSSKMKRNVIQRFIHVADHCRTFQNFNTLMEIILALSSSVVQKFTDAWRLIEPGDLLTWEELKKIPSLDRNYSTIRNLLNSVNPLVGCVPFIVVYLSDLSANAEKKDWILEDKVVNYNKFDTNVQIVKNFIQRVQWSKFYTFKVNHELLSKCVYISTLTQEEINELST
B3: Gea1p (protein, UniProt P47102 1-1408)
chain: MHDVPMETVLAVNPATMIVKECINLCSAMNKQSRDKSQTSVAALLGGGSDIFLSQSDSFVDSFHNLPTSSYHDPLISGLVQLRLKINDLKGLDSLNALELLKPFLEIVSASSVSGYTTSLALDSLQKVFTLKIINKTFNDIQIAVRETVVALTHCRFEASKQISDDSVLLKVVTLLRDIITSSFGDYLSDTIIYDVLQTTLSLACNTQRSEVLRKTAEVTIAGITVKLFTKLKLLDPPTKTEKYINDESYTDNNLKDDIIGTTTSDNDLSSTDDDSAVADDNKNEKPVQQVIREQENDEETAEKAENVEPNYGITVIKDYLGLLLSLVMPENRMKHTTSAMKLSLQLINAAIEISGDKFPLYPRLFSLISDPIFKSVLFIIQSSTQYSLLQATLQLFTSLVVILGDYLPMQIELTLRRIFEILEDTTISGDVSKQKPPAIRELIIEQLSILWIHSPAFFLQLFVNFDCNLDRSDLSIDFIKELTKFSLPAAAVNTSNNIPPICLEGVLSLIENIYNDLQRFDRAEFVKNQKEIDILKQRDRKTEFILCVETFNEKAKKGIQMLIEKGFIDSDSNRDIASFLFLNNGRLNKKTIGLLLCDPKKTSLLKEFIDLFDFKGLRVDEAIRILLTKFRLPGESQQIERIVEAFSSKYSADQSNDKVELEDKKAGKNGSESMTEDDIIHVQPDADSVFVLSYSIIMLNTDSHNPQVKDHMTFDDYSNNLRGCYNGKDFPRWYLHKIYTSIKVKEIVMPEEHHGNERWFEDAWNNLISSTSVMTEMQRDFTNPISKLAQIDILQYEKAIFSNVRDIILKTLFKIFTVASSDQISLRILDAISKCTFINYYFSFDQSYNDTVLHLGEMTTLAQSSAKAVELDVDSIPLVEIFVEDTGSKISVSNQSIRLGQNFKAQLCTVLYFQIIKEISDPSIVSTRLWNQIVQLILKLFENLLMEPNLPFFTNFHSLLKLPELPLPDPDISIRKAKMSRSLLSTFASYLKGDEEPSEEDIDFSIKAFECVKASHPLSSVFENNQLVSPKMIETLLSSLVIEKTSENSPYFEQELLFLLEISIILISEASYGQEFGALIADHMINISNLDGLSKEAIARLASYKMFLVSRFDNPRDILSDLIEHDFLVKNEIFNTKYYESEWGKQVINDLFTHLNDVKYNERALKNVKFWNFLRILISAKDRQFAVYTFLEKYIQNGDIFVDDGNFMNILSLLDEMSCAGAVGTKWEQNYENSVEDGCEAPESNPYRSIIDLSSRSINITADLLSTVGRSNSALNKNEIIAAIQGLAHQCLNPCDELGMQALQALENILLSRASQLRTEKVAVDNLLETGLLPIFELDEIQDVKMKRITSILSVLSKIFLGQLVEGVTSNETFLRVLNVFNKYVDDPTVERQLQELIISKREIEKE
B4: Snf1p (found in the capture from lysates of starved yeast) (protein, UniProt P06782 1-633)
chain: MSSNNNTNTAPANANSSHHHHHHHHHHHHHGHGGSNSTLNNPKSSLADGAHIGNYQIVKTLGEGSFGKVKLAYHTTTGQKVALKIINKKVLAKSDMQGRIEREISYLRLLRHPHIIKLYDVIKSKDEIIMVIEYAGNELFDYIVQRDKMSEQEARRFFQQIISAVEYCHRHKIVHRDLKPENLLLDEHLNVKIADFGLSNIMTDGNFLKTSCGSPNYAAPEVISGKLYAGPEVDVWSCGVILYVMLCRRLPFDDESIPVLFKNISNGVYTLPKFLSPGAAGLIKRMLIVNPLNRISIHEIMQDDWFKVDLPEYLLPPDLKPHPEEENENNDSKKDGSSPDNDEIDDNLVNILSSTMGYEKDEIYESLESSEDTPAFNEIRDAYMLIKENKSLIKDMKANKSVSDELDTFLSQSPPTFQQQSKSHQKSQVDHETAKQHARRMASAITQQRTYHQSPFMDQYKEEDSTVSILPTSLPQIHRANMLAQGSPAASKISPLVTKKSKTRWHFGIRSRSYPLDVMGEIYIALKNLGAEWAKPSEEDLWTIKLRWKYDIGNKTNTNEKIPDLMKMVIQLFQIETNNYLVDFKFDGWESSYGDDTTVSNISEDEMSTFSAYPFLHLTTKLIMELAVNSQSN

These molecules were tested against T1, dominant-negative GDP-bound Arf3p^T31N (bait used to capture potential GEFs) (S. cerevisiae) (assay: affinity purification with mass spectrometry; dominant-negative GDP-bound Arf3p T31N used to capture potential GEFs from lysates of starved yeast).

binding, binds:
Sec7p (from UniProt P11075 1-2009)
B1
B2
B3
B4

No constants are given. Whether binding was seen depends on the method and setting. In cells and extracts the contact can be indirect. These calls come from enrichment with a bait or labelling near it, and not all partners need be listed.
